This passage reports binding results from patent US20190071501A1 (REYOUNG SUZHOU BIOLOGY SCIENCE AND TECHNOLOGY, published 2019).

In this test the target is Recombinant human PD-1 fusion protein (human). Description: ELISA: recombinant human PD-1 fusion protein coated at 0.5 ug/mL, antibody after storage in monkey serum, goat anti-human FAB-HRP, OD450.

No constants are given. Whether binding was seen depends on the method and setting. A result given as binding can be weak or reduced; the word gives no strength.

B1: humanized antibody anti-PD-1 (antibody, V domains shown)
VH: EVQLVESGGGLVKPGGSLRLSCAASGFTFSSYTMSWVRQAPGKGLEWVATISNGGSFTYYPDSMKGRFTISRDNSKNTLYLQMSSLRAEDTAVYYCARDSDYYGIFDYWGQGTTVTVSS
VL: DIVMTQSPLSLPVTPGEPASISCRSSKSLLYKDGKTYLNWYLQKPGQSPQLLIYLMSTRASGVPDRFSGSGSGTDFTLKISRVEAEDVGVYYCQQLVEDPFTFGQGTKLEIKR
notes: Human constant regions; also called humanized PD-1 antibody; hup01 (plasmids P3.1GS-hup01-HC / P3.1GS-hup01-LC)
On to B1, for which the binding result is “binds”.
